Consider 109 sequences from the supplement of paper PMC3334620.

The full ranking holds about 33,000 sequences; the median of “E-score (-0.5 to 0.5)” is about -0.0059, and the highest 2% start at about 0.26. The list shows a part of the results.

The target of this assay is T1, Cin5 (UniProt P40917).
T1 sequence: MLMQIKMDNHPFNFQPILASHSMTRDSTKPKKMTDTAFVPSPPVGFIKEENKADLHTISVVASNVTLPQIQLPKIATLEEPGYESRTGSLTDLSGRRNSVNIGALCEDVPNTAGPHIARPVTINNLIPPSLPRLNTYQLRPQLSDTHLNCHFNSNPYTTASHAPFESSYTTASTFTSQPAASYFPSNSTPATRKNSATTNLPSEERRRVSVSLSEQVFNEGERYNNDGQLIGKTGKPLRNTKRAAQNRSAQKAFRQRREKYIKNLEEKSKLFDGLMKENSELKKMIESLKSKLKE
Briefly: PBM E-score (8-mer binding enrichment) (E-score (-0.5 to 0.5)); higher = stronger / more preferred TF binding. As to conditions: protein concentration: 100 nM; construct: GST-full length. An outline of the steps: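 Yeast transcription factors carrying a GST tag, as full-length proteins or DNA-binding domains, were produced by PURExpress in vitro transcription/translation. About 100-200 nM protein was applied to universal all-10-mer Agilent arrays, double-stranded by primer extension on fresh or once-stripped slides. Bound protein was detected with fluorescent anti-GST, and scans were normalised with masliner. The Universal PBM Analysis Suite gave each ungapped eight-base word, pooled with its reverse complement, an E-score, a modified Wilcoxon-Mann-Whitney statistic.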
Consider CCGTCCGC, for which the “PBM E-score” value was -0.0958. For GTACCATA, the “PBM E-score” value was -0.04.

On to AGAGGTTG, for which the “PBM E-score” value is -0.0988. To AAATAGAC belongs 0.143; to CGTACGTC, -0.085.

Turning to GTCCAAAC, the “PBM E-score” value is -0.189. To AACAGAGG belongs -0.0344; to ACTCACAC, -0.0239. As to GGCTCCAC, the “PBM E-score” value is -0.279.

For GCGAGGAA, the “PBM E-score” value amounted to 0.0446. As for GACGTCCA, the “PBM E-score” value was 0.168. Next, TATGTTGA: 0.146; CCAGGACA: -0.025. As to GATGGTCC, the “PBM E-score” value was -0.129. For the sequence ACGCAATA, the “PBM E-score” value turned out to be 0.209.

In the case of GCTCGAAC, the “PBM E-score” value came out at 0.023. As to ACACTTAC, the “PBM E-score” value stood at 0.103.

For AGTCAAGG, the “PBM E-score” value is -0.0863. To CCCCGAGG belongs -0.188; to CGGTTAGA, -0.0583. For the sequence AACGCCCG, the “PBM E-score” value amounted to 0.0417. As to CATGAAGC, the “PBM E-score” value is -0.0759. Next, ACATTGCA: 0.108; ACGTTCTG: -0.0118.

For the sequence ATCCGCAT, the “PBM E-score” value worked out at 0.164. Consider CTAGAACC, for which the “PBM E-score” value was 0.0185. Next, GGGCCGAA: -0.097. For the sequence CGATCTCA, the “PBM E-score” value amounted to 0.0389.

As for AAACTTGT, the “PBM E-score” value worked out at 0.0442. As to TGCCCCCA, the “PBM E-score” value is -0.285. CCAGTTGC: the “PBM E-score” value is -0.18.

Regarding ATCATTAA, the “PBM E-score” value was determined as 0.221. Take ACAGCGAA: the “PBM E-score” value is -0.00314.

On to TGAGAGCA, for which the “PBM E-score” value stood at 0.016. Turning to CCCCTCCG, the “PBM E-score” value is -0.194.

On to AAGTGTTG, for which the “PBM E-score” value is 0.233. Next, AACCAATA: 0.214; AACGAACC: 0.123. Next, TACAGTCA: 0.0163. To CGCTCTGA belongs -0.0953.

In the case of ACGAAGAC, the “PBM E-score” value was -0.159. To CCCCGGTC belongs -0.2. Regarding ACCGTTCG, the “PBM E-score” value turned out to be 0.0104. Next, CGTGGCTA: -0.13; CATCAGCA: 0.0488. To GATCCATC belongs 0.044; to CATTGGGA, -0.093; to AATCAATA, 0.168. In the case of AAAGGGCG, the “PBM E-score” value is -0.047. Next, TACGCCAA: -0.172. Take CCCGCCAC: the “PBM E-score” value turned out to be 0.137. Next, CTTCGTCA: 0.145. Regarding CGATACAC, the “PBM E-score” value is -0.107.

For the sequence CGCCGAGA, the “PBM E-score” value is -0.00261. Next, AACAAAGT: 0.219. Next, CCCGATTC: -0.00413; ATAAATCC: 0.136; ATTTGAAC: 0.0971. Next, ACACTGAC: 0.146. Turning to CGTCAGCA, the “PBM E-score” value is 0.169.

On to AGTACTCC, for which the “PBM E-score” value is -0.0905. For the sequence ACACGGGC, the “PBM E-score” value was -0.128.

With AACAGTCT, the “PBM E-score” value is -0.202. In the case of AATTTTCT, the “PBM E-score” value was 0.135. Next, GATCTAAC: 0.0956; AATATATG: 0.248. As to GCTGCCTA, the “PBM E-score” value was 0.00723. Next, ACGGGTGC: -0.044; AAATCTAC: 0.169. To CAATTATA belongs 0.126. Next, CGCCTTTA: -0.0771; CCAGTCTA: -0.11; GCTTGTGA: -0.13.

Take CGGTAGTA: the “PBM E-score” value was -0.0389. To ACACCTAG belongs -0.135; to CGGCACGA, 0.00852; to CACCTATG, -0.0699. Next, ACCTGTCA: -0.0783; ATAGATGG: 0.00483; CTGCTCTA: 0.0196.

GCGTGCTA: the “PBM E-score” value was -0.266. To CATGTTCC belongs -0.0235; to AAAGCGGT, -0.117; to ATGTTCGC, -0.0488. Next, ACTTAACG: -0.0484; CACGCTGC: -0.173; GATCTCTA: -0.138. As to CCTTCGAC, the “PBM E-score” value was -0.305. Next, CAAGAGGC: -0.124; AGGTCCAC: -0.229. To GAGCGGCC belongs -0.239.

As for ACAAGCGA, the “PBM E-score” value was determined as 0.155. Regarding CCTGATAC, the “PBM E-score” value was found to be 0.175. Next, CAGTGTTC: 0.0766; AAATCTGT: 0.111; AAAATAGT: 0.0745. Take AGCCCAAG: the “PBM E-score” value is -0.0399. To ATCTCGTC belongs 0.0617; to CCACTGCG, 0.00457; to AACTCTCA, -0.0921. Take CTCCTGGC: the “PBM E-score” value is -0.0848. For AGTAAGAT, the “PBM E-score” value amounted to 0.183. Next, GACTGGAA: -0.2; CCCACAAA: 0.257; CGGAGAAG: -0.174.

As for CTTACGGA, the “PBM E-score” value is 0.0965. To AAATAGTG belongs 0.213. Next, CATCAAAC: 0.0949; GGGTTGGA: -0.0377.
